The other results are listed elsewhere or left out.

The chains behind the UniProt entries cited, without tags or fusion partners. Where a name states a change or a piece, a line headed by the entry shows the natural chain unless it says otherwise.
UniProt P00558: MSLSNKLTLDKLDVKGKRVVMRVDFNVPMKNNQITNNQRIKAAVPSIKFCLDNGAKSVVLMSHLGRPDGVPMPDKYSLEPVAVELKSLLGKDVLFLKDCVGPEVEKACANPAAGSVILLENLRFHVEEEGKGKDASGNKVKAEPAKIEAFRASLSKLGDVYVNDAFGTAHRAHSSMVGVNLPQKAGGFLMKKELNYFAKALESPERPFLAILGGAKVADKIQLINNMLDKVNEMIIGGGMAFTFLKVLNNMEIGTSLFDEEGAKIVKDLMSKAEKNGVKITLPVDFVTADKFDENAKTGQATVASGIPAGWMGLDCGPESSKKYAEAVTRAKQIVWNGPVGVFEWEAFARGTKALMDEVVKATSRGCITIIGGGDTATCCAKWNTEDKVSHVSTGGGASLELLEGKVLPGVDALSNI
UniProt O95336: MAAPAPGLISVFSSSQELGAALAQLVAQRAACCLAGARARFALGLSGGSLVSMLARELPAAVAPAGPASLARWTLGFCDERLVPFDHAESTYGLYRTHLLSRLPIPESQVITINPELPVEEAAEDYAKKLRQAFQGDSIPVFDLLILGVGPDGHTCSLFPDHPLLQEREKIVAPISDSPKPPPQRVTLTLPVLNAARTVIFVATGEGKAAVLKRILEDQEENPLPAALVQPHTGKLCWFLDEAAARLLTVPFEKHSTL
UniProt Q13492: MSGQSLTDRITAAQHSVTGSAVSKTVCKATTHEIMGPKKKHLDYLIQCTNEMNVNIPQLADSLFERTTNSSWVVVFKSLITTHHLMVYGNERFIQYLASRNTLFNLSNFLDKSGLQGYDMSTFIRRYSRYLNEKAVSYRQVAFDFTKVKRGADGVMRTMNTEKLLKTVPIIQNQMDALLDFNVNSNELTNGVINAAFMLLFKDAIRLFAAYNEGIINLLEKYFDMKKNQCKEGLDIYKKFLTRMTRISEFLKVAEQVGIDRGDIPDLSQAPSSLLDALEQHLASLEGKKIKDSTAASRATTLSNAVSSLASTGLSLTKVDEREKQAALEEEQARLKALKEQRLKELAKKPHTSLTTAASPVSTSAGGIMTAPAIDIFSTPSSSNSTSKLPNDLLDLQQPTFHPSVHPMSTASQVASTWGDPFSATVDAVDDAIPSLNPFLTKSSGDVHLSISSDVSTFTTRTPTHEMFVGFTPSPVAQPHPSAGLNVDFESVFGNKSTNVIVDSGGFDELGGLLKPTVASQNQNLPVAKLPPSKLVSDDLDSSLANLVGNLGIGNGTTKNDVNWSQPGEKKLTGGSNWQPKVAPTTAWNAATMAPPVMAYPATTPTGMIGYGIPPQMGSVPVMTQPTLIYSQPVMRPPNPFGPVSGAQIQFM
UniProt P42356, whole entry, looked up: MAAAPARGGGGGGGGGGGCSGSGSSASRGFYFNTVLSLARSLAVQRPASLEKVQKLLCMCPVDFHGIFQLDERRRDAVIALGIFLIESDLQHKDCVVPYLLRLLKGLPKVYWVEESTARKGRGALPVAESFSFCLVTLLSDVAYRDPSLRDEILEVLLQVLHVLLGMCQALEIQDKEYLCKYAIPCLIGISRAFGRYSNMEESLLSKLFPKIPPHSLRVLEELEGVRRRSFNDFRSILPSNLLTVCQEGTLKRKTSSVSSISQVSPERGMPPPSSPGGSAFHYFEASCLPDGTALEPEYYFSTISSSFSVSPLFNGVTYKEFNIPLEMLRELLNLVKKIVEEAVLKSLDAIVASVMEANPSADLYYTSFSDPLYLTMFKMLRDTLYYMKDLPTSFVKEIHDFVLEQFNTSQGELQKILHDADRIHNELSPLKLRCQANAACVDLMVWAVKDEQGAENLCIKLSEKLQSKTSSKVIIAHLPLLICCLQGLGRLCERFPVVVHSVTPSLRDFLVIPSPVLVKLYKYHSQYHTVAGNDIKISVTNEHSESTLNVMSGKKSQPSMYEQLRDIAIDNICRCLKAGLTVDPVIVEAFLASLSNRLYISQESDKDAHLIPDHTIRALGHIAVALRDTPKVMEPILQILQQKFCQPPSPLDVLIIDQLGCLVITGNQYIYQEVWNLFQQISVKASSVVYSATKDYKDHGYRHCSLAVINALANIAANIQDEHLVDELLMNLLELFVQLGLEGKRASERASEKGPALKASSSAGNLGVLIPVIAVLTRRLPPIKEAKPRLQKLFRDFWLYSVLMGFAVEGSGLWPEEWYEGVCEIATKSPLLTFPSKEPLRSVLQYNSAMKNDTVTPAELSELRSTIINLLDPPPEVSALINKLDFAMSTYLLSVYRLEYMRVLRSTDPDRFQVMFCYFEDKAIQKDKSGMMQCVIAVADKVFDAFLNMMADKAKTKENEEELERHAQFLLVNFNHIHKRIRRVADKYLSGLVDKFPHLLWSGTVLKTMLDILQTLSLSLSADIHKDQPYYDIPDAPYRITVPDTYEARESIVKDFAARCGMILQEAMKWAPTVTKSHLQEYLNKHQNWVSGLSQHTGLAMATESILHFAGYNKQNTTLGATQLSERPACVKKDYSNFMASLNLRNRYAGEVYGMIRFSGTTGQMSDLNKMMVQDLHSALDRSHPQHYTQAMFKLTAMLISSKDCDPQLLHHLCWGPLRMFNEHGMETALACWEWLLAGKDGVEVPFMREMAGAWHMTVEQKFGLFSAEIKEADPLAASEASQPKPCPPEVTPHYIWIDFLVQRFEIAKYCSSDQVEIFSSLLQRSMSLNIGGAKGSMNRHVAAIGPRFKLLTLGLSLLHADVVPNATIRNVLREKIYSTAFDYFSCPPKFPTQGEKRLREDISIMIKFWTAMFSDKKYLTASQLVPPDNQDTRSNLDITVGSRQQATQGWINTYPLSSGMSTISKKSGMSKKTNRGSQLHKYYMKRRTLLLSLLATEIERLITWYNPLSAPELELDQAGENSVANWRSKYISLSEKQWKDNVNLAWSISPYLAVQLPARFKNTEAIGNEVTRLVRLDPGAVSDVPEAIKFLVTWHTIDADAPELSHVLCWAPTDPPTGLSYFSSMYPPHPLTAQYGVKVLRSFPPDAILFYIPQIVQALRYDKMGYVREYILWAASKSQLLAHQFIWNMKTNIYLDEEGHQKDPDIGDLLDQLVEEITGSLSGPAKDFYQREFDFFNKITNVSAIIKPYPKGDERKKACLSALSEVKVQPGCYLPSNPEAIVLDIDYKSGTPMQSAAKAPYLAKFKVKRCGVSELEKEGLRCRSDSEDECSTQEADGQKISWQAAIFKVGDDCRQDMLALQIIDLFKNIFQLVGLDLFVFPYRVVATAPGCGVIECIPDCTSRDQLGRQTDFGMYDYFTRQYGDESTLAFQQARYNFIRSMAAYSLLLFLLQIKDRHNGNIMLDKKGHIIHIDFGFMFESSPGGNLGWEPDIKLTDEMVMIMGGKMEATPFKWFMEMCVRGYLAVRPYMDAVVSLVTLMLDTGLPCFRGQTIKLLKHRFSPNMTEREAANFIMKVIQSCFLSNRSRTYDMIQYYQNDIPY
UniProt Q9Y2I7: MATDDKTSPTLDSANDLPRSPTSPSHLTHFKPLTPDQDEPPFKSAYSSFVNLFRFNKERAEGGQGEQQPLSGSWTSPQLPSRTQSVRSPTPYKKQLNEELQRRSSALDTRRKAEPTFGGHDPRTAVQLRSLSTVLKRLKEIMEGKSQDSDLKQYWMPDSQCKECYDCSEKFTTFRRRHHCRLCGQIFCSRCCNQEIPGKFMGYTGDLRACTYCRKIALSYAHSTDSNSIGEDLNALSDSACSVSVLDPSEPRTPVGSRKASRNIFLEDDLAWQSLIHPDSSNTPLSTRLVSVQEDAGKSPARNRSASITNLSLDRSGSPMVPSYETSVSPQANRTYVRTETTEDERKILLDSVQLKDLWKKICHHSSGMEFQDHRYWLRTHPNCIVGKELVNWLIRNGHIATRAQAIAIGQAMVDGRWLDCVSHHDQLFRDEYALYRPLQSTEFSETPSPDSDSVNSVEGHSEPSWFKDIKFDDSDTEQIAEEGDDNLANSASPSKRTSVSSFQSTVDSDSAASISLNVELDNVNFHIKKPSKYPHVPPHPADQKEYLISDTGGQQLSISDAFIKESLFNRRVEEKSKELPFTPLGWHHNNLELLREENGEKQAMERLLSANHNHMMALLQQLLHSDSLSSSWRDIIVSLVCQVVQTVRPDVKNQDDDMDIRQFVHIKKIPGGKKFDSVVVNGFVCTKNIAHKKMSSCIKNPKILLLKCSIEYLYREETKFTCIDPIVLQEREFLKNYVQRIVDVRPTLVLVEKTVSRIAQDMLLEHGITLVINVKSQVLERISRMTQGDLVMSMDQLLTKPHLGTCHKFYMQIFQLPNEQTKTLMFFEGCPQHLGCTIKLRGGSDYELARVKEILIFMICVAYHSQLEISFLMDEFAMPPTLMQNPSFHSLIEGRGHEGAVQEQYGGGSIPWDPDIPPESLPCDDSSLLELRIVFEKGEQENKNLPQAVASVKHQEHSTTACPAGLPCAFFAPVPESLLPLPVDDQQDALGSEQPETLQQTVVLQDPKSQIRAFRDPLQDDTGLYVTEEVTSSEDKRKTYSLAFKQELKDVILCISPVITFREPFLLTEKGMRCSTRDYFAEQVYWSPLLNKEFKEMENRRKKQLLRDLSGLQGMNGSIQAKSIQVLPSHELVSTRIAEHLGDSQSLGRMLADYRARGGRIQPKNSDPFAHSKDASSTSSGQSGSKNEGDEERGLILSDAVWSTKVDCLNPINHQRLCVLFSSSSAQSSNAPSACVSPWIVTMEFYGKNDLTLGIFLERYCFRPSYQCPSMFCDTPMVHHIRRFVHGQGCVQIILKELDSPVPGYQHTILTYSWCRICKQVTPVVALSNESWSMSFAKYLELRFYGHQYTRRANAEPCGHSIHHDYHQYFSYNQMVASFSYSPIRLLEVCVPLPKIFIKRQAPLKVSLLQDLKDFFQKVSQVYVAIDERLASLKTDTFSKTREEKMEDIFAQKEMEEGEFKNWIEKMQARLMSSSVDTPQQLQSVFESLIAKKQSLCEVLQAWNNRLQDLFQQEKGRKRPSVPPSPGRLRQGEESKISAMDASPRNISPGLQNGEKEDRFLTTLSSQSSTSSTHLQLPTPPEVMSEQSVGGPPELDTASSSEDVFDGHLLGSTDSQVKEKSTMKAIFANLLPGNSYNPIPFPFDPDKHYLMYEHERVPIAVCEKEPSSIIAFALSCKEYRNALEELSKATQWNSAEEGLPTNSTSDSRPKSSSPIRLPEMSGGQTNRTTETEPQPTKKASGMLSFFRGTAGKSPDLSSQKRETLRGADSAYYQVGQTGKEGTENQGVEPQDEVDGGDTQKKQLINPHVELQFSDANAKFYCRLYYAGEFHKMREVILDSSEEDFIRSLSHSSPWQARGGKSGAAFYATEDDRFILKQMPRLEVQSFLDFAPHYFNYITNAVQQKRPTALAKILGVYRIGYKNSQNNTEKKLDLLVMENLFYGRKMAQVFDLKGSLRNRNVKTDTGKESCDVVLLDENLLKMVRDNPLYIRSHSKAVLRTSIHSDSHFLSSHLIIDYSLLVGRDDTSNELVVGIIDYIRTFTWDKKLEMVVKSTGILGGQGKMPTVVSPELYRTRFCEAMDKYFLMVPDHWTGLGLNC
UniProt P42338: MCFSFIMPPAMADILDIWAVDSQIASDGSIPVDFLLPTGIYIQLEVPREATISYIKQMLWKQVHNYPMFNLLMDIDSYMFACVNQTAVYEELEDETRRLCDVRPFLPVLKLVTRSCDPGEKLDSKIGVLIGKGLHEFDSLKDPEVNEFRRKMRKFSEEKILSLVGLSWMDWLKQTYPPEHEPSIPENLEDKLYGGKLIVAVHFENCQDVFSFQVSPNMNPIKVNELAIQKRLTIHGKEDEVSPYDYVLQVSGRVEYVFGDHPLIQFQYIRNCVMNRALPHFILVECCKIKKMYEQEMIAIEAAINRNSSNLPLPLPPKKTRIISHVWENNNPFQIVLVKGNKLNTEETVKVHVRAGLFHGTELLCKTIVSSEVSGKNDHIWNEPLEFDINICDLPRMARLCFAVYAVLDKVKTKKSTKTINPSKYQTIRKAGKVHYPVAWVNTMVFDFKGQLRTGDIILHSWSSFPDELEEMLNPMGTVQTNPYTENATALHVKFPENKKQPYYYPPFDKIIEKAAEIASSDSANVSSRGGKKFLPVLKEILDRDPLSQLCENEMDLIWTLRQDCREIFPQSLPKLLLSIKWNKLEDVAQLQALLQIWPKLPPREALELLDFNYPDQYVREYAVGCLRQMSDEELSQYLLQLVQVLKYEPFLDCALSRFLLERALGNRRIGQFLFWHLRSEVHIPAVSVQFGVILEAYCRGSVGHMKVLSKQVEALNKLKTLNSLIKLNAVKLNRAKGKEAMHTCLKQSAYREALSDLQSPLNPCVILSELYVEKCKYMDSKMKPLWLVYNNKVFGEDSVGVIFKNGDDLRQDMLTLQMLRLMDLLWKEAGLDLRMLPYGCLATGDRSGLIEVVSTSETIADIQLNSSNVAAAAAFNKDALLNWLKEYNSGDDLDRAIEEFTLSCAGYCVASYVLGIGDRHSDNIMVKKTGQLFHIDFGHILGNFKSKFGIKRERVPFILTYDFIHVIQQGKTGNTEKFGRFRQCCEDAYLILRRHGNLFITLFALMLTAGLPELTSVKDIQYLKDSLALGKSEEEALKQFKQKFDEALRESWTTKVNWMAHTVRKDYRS

Compound in the first experiment: CCCCN(Cc1ccc(C(=O)NO)cc1)C(=O)Nc1ccccc1 [Nexturastat A]
The experiment in a line: log2 fold change, soluble protein after heating vs DMSO (PISA); higher = thermal stabilisation; K562 cells, 10 uM, 30 min; active = over 0.2 and 3.5 SD of the protein, either way, in both replicates (recomputed). The essentials: (§1)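 Soluble protein was defined as the supernatant after 21,000xg for 90 min. It came from K562 cells at 2×10^6 cells/mL given 10 μM compound for 30 min, heated in aliquots for 3 min across 48°C-58°C, pooled, and extracted in PBS with 0.5% NP-40 at 4°C, and was quantified by TMTpro 16plex LC-MS/MS with equalised channel sums. Thermal stability against control samples, from duplicates, is reported as log2 fold change.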
In the case of PGK1 (UniProt P00558), the log2 fold change is inactive: -0.05.
The same measure, in the same setting: to PHGDH (UniProt O43175) belongs inactive: -0.101; to PKN2 (UniProt Q16513), inactive: 0.042.
Still for that read-out and setting: to PGLS (UniProt O95336) belongs inactive: -0.026; to PGAM5 (UniProt Q96HS1), inactive: 0.15; to PICALM (UniProt Q13492), inactive: -0.032.
The same measure, in the same setting: next, PHACTR4 isoform 2 (UniProt Q8IZ21): inactive: -0.001; PHAX (UniProt Q9H814): inactive: 0.02.
PI4KA (UniProt P42356): the log2 fold change was inactive: 0.211.
On the same count and under the same terms, next, PGRMC1 (UniProt O00264): inactive: -0.024; PLD3 (UniProt Q8IV08): inactive: -0.081; PKLR (UniProt P30613): inactive: -0.018.
The same measure, in the same setting: to PIP4P1 isoform 2 (UniProt Q86T03) belongs inactive: 0.035; to PIK3R4 (UniProt Q99570), inactive: 0.066; to PI4K2A (UniProt Q9BTU6), inactive: -0.005.
As for PFKP (UniProt Q01813), the log2 fold change was inactive: -0.009.
The same measure, in the same setting: next, PIR (UniProt O00625): inactive: -0.053; PIKFYVE (UniProt Q9Y2I7): inactive: 0.004; PITHD1 (UniProt Q9GZP4): inactive: -0.005.
With PGGT1B (UniProt P53609), the log2 fold change was inactive: -0.073.
The same measure, in the same setting: next, PLA2G15 (UniProt Q8NCC3): inactive: 0.089; PEX6 (UniProt Q13608): inactive: 0.009.
The same measure, in the same setting: to PIK3CB (UniProt P42338) belongs inactive: 0.013; to PHB (UniProt P35232), inactive: -0.019; to PEX16 isoform 2 (UniProt Q9Y5Y5), inactive: -0.033.
Still for that read-out and setting: to PITPNB isoform 3 (UniProt P48739) belongs inactive: -0.103.
For the target PFDN6 (UniProt O15212), the log2 fold change is inactive: -0.051.
On the same count and under the same terms, to PINX1 (UniProt Q96BK5) belongs inactive: 0.481; to PGPEP1 (UniProt Q9NXJ5), inactive: 0.163.
Still for that read-out and setting: next, PLCB3 (UniProt Q01970): inactive: -0.019.
Same read-out and setting: to PJA2 (UniProt O43164) belongs inactive: 0.188.
Take PIH1D1 (UniProt Q9NWS0): the log2 fold change was inactive: 0.042.
The same measure, in the same setting: next, PFKFB4 (UniProt Q16877): inactive: 0.021.

Compound in the next experiment: CCCS(=O)(=O)Nc1ccc(F)c(C(=O)c2c[nH]c3ncc(-c4ccc(Cl)cc4)cc23)c1F [vemurafenib]
The description is as above. In a few lines:
as §1
Turning to PGK1 (UniProt P00558), the log2 fold change was inactive: 0.003.
Regarding PHGDH (UniProt O43175), the log2 fold change was inactive: 0.015.
On the same count and under the same terms, next, PKN2 (UniProt Q16513): inactive: 0.05; PGLS (UniProt O95336): inactive: 0.185.
As for PGAM5 (UniProt Q96HS1), the log2 fold change is inactive: 0.001.
On the same count and under the same terms, next, PICALM (UniProt Q13492): inactive: 0.022; PHACTR4 isoform 2 (UniProt Q8IZ21): inactive: -0.023.
On the same count and under the same terms, next, PHAX (UniProt Q9H814): inactive: 0.002.
On the same count and under the same terms, to PI4KA (UniProt P42356) belongs inactive: -0.01; to PGRMC1 (UniProt O00264), inactive: 0.025.
Turning to PLD3 (UniProt Q8IV08), the log2 fold change is inactive: -0.007.
Still for that read-out and setting: next, PKLR (UniProt P30613): inactive: 0.006.
Still for that read-out and setting: to PIP4P1 isoform 2 (UniProt Q86T03) belongs inactive: -0.198.
The same measure, in the same setting: to PIK3R4 (UniProt Q99570) belongs inactive: -0.002; to PI4K2A (UniProt Q9BTU6), inactive: 0.023; to PFKP (UniProt Q01813), inactive: -0.031.
Consider PIR (UniProt O00625), for which the log2 fold change is inactive: 0.03.
Same read-out and setting: next, PIKFYVE (UniProt Q9Y2I7): inactive: 0.091; PITHD1 (UniProt Q9GZP4): inactive: -0.027.
The same measure, in the same setting: to PGGT1B (UniProt P53609) belongs inactive: -0.022; to PLA2G15 (UniProt Q8NCC3), inactive: 0.044.
Same read-out and setting: next, PEX6 (UniProt Q13608): inactive: 0.039; PIK3CB (UniProt P42338): inactive: 0.022; PHB (UniProt P35232): inactive: -0.041.
For PEX16 isoform 2 (UniProt Q9Y5Y5), the log2 fold change was inactive: 0.071.
As for PITPNB isoform 3 (UniProt P48739), the log2 fold change was inactive: 0.007.
On the same count and under the same terms, to PFDN6 (UniProt O15212) belongs inactive: 0.089.
The same measure, in the same setting: to PINX1 (UniProt Q96BK5) belongs inactive: -0.233; to PGPEP1 (UniProt Q9NXJ5), inactive: -0.314.
The same measure, in the same setting: next, PLCB3 (UniProt Q01970): inactive: 0.024.
For PJA2 (UniProt O43164), the log2 fold change was inactive: -0.024.
Still for that read-out and setting: to PIH1D1 (UniProt Q9NWS0) belongs inactive: 0.044; to PFKFB4 (UniProt Q16877), inactive: -0.018.

Compound in a further experiment: CCCS(=O)(=O)Nc1ccc(F)c(C(=O)c2c[nH]c3ncc(Cl)cc23)c1F
The experiment is described as above. The essentials:
as §1
As for PGK1 (UniProt P00558), the log2 fold change was inactive: -0.012.
Same read-out and setting: to PHGDH (UniProt O43175) belongs inactive: 0.017.
Still for that read-out and setting: to PKN2 (UniProt Q16513) belongs inactive: 0.086; to PGLS (UniProt O95336), inactive: -0.018; to PGAM5 (UniProt Q96HS1), inactive: -0.029.
The same measure, in the same setting: to PICALM (UniProt Q13492) belongs inactive: 0.032; to PHACTR4 isoform 2 (UniProt Q8IZ21), inactive: -0.043.
PHAX (UniProt Q9H814): the log2 fold change is inactive: -0.019.
Same read-out and setting: next, PI4KA (UniProt P42356): inactive: 0.072.
Same read-out and setting: next, PGRMC1 (UniProt O00264): inactive: 0.011.
The same measure, in the same setting: next, PLD3 (UniProt Q8IV08): inactive: 0.019; PKLR (UniProt P30613): inactive: 0.007; PIP4P1 isoform 2 (UniProt Q86T03): inactive: -0.063.
In the case of PIK3R4 (UniProt Q99570), the log2 fold change was inactive: 0.01.
The same measure, in the same setting: to PI4K2A (UniProt Q9BTU6) belongs inactive: 0.015; to PFKP (UniProt Q01813), inactive: -0.021.
On the same count and under the same terms, next, PIR (UniProt O00625): inactive: 0.122.
On the same count and under the same terms, to PIKFYVE (UniProt Q9Y2I7) belongs inactive: 0.109.
In the case of PITHD1 (UniProt Q9GZP4), the log2 fold change was inactive: -0.11.
On the same count and under the same terms, next, PGGT1B (UniProt P53609): inactive: -0.023; PLA2G15 (UniProt Q8NCC3): inactive: 0.001.
Regarding PEX6 (UniProt Q13608), the log2 fold change is inactive: 0.003.
The same measure, in the same setting: to PIK3CB (UniProt P42338) belongs inactive: -0.001.
On the same count and under the same terms, to PHB (UniProt P35232) belongs inactive: -0.012.
Same read-out and setting: to PEX16 isoform 2 (UniProt Q9Y5Y5) belongs inactive: 0.089; to PITPNB isoform 3 (UniProt P48739), inactive: 0.009.
On to PFDN6 (UniProt O15212), for which the log2 fold change was inactive: -0.001.
Consider PINX1 (UniProt Q96BK5), for which the log2 fold change was inactive: -0.044.
The same measure, in the same setting: to PGPEP1 (UniProt Q9NXJ5) belongs inactive: 0.146; to PLCB3 (UniProt Q01970), inactive: 0.045; to PJA2 (UniProt O43164), inactive: -0.062.
Same read-out and setting: to PIH1D1 (UniProt Q9NWS0) belongs inactive: 0.075; to PFKFB4 (UniProt Q16877), inactive: 0.014.

The values are drawn from the supplement of paper PMC10849652.
